No constants are given. Whether binding was seen depends on the method and setting. In cells and extracts the contact can be indirect. These calls come from enrichment with a bait or labelling near it, and not all partners need be listed.
Biological target: EMC1-Flag (Flag-tagged Drosophila EMC1, from UAS-EMC1-FLAG) (Drosophila melanogaster)
Assay: affinity purification with mass spectrometry

- binding: binds
B1: Hippo (Hpo), endogenous in flies (enzyme, UniProt Q8T0S6 1-669)
chain: MSEPEVTSVVDMKSPNISSSCSFFKLKKLSEESLLQPPEKVFDIMYKLGEGSYGSVYKAVHKESSSIVAIKLVPVESDLHEIIKEISIMQQCDSPYVVRYYGSYFKQYDLWICMEYCGAGSVSDIMRLRKKTLTEDEIATILSDTLQGLVYLHLRRKIHRDIKAANILLNTEGYAKLADFGVAGQLTDTMAKRNTVIGTPFWMAPEVIEEIGYDCVADIWSLGITALEMAEGKPPYGEIHPMRAIFMIPQKPPPSFREPDRWSTEFIDFVSKCLVKEPDDRATATELLEHEFIRNAKHRSILKPMLEETCAIREQQRANRSFGGVLAASQAKSLATQENGMQQHITDNAFMEDPGTLVPEKFGEYQQSSASDATMIAHAEQGVDEGTLGPGGLRNLSKAAAPAAASSAASPLDMPAVDSGTMVELESNLGTMVINSDSDDSTTAKNNDDQKPRNRYRPQFLEHFDRKNAGDGRGDEKPIATEYSPAAAEQQQQQQQQQQQQQQDEQHLASGANDLNNWEHNMEMQFQQISAINQYGLQQHQQQQQVLMAYPLMNEQLIALNNQPNLLLSNAAPMGQQGIPAAAPAQPPPAYQNQHMHTQSHAYVEGEFEFLKFLTFDDLNQRLCNIDHEMELEIEQLNKKYNAKRQPIVDAMNAKRKRQQNINNNLIKI

From article doi:10.1101/2022.01.25.477727
